In publication PMC3511559:
Results are given in words; binding and its absence hold for the method and conditions named. Binding seen in cells or lysates may run through a third protein. Some entries that bind do so weakly or less than the wild type.

The chains behind the UniProt entries cited, without tags or fusion partners.
UniProt P60903: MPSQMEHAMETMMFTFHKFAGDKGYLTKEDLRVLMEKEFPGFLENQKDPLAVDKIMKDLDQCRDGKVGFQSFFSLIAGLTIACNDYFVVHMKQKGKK
UniProt P07355: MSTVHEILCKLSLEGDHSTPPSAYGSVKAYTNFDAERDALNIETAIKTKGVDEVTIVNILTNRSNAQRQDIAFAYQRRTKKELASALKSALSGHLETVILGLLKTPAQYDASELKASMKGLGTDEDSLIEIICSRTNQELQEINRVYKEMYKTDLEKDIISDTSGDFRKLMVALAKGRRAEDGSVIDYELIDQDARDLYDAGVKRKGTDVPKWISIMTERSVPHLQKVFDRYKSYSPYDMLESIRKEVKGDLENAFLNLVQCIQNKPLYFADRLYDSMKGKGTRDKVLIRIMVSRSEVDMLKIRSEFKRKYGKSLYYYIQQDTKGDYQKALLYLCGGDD

Molecular target: S100A10 (human (endogenous in TIME, MCF7 and A549 cells)) (UniProt P60903)
Assay: co-IP; non-nuclear fractions of TIME, MCF7 and A549 cells, untreated or treated with 10 Gy IR or 1 mM H2O2 for 2 hours; immunoprecipitation with antibodies against annexin A2 or S100A10 and protein G-Sepharose, western blot

With annexin A2 (from UniProt P07355 1-339) the binding was “binds”.
